The target in the test is hypoxia-inducible factor 1α (human (endogenous in human colon cancer cell lines)) (UniProt Q16665). The test can be described thus: co-IP; whole-cell lysates in IP lysis buffer; Anti-HA magnetic beads or Protein-A/G magnetic beads pre-incubated with anti-HIF1α (anti-IgG as negative control), 30 min at RT; washed with TBS-T or PBS-T; western blot. (A western blot detects proteins with antibodies after separation by electrophoresis.)

Sequences of proteins named here, by UniProt entry; tags and fusion partners are left off.
UniProt Q16665: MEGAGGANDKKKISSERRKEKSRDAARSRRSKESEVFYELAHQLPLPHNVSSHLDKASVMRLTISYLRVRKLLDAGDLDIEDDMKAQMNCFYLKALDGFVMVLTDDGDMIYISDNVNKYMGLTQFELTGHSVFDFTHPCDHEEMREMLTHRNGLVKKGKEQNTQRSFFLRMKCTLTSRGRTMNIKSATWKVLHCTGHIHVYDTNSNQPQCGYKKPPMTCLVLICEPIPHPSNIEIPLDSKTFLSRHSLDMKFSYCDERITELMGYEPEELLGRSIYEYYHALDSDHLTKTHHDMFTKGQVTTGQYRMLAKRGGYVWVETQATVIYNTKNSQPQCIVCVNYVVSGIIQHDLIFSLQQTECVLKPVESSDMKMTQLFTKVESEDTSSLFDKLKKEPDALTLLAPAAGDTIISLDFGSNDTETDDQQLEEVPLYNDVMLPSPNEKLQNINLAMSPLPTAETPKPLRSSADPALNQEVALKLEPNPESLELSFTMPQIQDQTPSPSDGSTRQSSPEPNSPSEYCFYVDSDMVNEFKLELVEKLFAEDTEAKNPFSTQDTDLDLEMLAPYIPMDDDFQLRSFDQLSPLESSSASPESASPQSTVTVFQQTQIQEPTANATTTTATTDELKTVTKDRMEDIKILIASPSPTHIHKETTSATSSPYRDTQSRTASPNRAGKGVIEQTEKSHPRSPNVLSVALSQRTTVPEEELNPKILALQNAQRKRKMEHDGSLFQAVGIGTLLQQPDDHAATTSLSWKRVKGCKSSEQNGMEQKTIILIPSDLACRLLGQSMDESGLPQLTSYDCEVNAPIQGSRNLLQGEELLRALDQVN

These are yes or no findings as the source states them, for the method shown. Binding seen in cells or lysates may run through a third protein.

B1: ONECUT3 (protein, UniProt O60422 1-494)
chain: MELSLESLGGLHSVAHAQAGELLSPGHARSAAAQHRGLVAPGRPGLVAGMASLLDGGGGGGGGGAGGAGGAGSAGGGADFRGELAGPLHPAMGMACEAPGLGGTYTTLTPLQHLPPLAAVADKFHQHAAAAAVAGAHGGHPHAHPHPAAAPPPPPPPQRLAASVSGSFTLMRDERAALASVGHLYGPYGKELPAMGSPLSPLPNALPPALHGAPQPPPPPPPPPLAAYGPPGHLAGDKLLPPAAFEPHAALLGRAEDALARGLPGGGGGTGSGGAGSGSAAGLLAPLGGLAAAGAHGPHGGGGGPGGSGGGPSAGAAAEEINTKEVAQRITAELKRYSIPQAIFAQRILCRSQGTLSDLLRNPKPWSKLKSGRETFRRMWKWLQEPEFQRMSALRLAACKRKEQEQQKERALQPKKQRLVFTDLQRRTLIAIFKENKRPSKEMQVTISQQLGLELNTVSNFFMNARRRCMNRWAEEPSTAPGGPAGATATFSKA
Turning to B1, the binding entry is listed as “no binding”.

The values are drawn from article PMC11876336.
